Test results taken from patent publication US20100209426A1, “INHIBITORS OF PROGASTRIN-INDUCED REPRESSION OF ICAT FOR TREATING AND/OR PREVENTING COLORECTAL CANCER, ADENOMATOUS POLYPOSIS OR METASTASIS DISPLAYING PROGASTRIN-SECRETING CELLS AND CELLS IN WHICH THE BETA-CATENIN/TCF-MEDIATED TRANSCRIPTIONAL PATHWAY IS CONSTITUTIVELY ACTIVE” (INSERM (INSTITUT NATIONAL DE LA SANTE ET DE LA REC HERCHE …, priority 2006, published 2010).

B1: recombinant progastrin: full-length progastrin (1-80) prohormone encoded by the GAST gene; recombinant peptide or secreted by CRC cells (protein)
chain: SWKPRSQQPDAPLGTGANRDLELPWLEQQGPASHHRRQLGPQGPPHLVADPSKKQGPWLEEEEEAYGWMDFGRRSAEDEN
B2: glycine-extended gastrin17: glycine-extended gastrin, one of the products of progastrin maturation (peptide)
peptide: B1 chain

Assays:
SW480 cells = assay: Radioimmunoassay of GAS gene products in SW480 cell supernatants; type: cell-based, human
DLD-1 cells = assay: Radioimmunoassay of GAS gene products in DLD-1 cell supernatants; type: cell-based, human
[1] = SW480/GAS(−)[1] cells (GAST shRNA)
[2] = SW480/GAS(−)[2] cells (GAST shRNA)
[3] = SW480/βgal(−) cells (control shRNA)
[4] = DLD-1/ASG[1] cells (antisense GAST cDNA)
[5] = DLD-1/ASG[2] cells (antisense GAST cDNA)

Molecule	RIA quantification of secreted peptide (SW480 cells; [1])	RIA quantification of secreted peptide (SW480 cells; [2])	RIA quantification of secreted peptide (SW480 cells; [3])	RIA quantification of secreted peptide (DLD-1 cells; [4])	RIA quantification of secreted peptide (DLD-1 cells; [5])	RIA quantification of secreted peptide (DLD-1 cells; DLD-1/VO cells (control))
amidated gastrin17: COOH terminally amidated gastrin, maturation product of progastrin [reference compound]	7 pmol/l/24 h	<7 pmol/l/24 h	<7 pmol/l/24 h	(<7)	(<7)	(<7)
B1	9 ± 1.5 pmol/l/24 h	6 ± 1 pmol/l/24 h	45.3 ± 3 pmol/l/24 h	(19 ± 3)	(23 ± 1.5)	(396 ± 11)
B2	3 ± 1.5 pmol/l/24 h	2.1 ± 1 pmol/l/24 h	2.7 ± 1 pmol/l/24 h	(18.6 ± 2)	(17 ± 2)	(310 ± 7)
